Paper PMC5372463, “Bacterial kinesin light chain (Bklc) links the Btub cytoskeleton to membranes” (Scientific Reports, 2017)
Results are given in words; binding and its absence hold for the method and conditions named. For part of these data: Binding seen in cells or lysates may run through a third protein. Some binding calls cover weakened binding; strength is not graded here. Values belong to the molecule of their own block, whether it stands above or below them.

The chains behind the UniProt entries cited, without tags or fusion partners.
UniProt Q8GCC1: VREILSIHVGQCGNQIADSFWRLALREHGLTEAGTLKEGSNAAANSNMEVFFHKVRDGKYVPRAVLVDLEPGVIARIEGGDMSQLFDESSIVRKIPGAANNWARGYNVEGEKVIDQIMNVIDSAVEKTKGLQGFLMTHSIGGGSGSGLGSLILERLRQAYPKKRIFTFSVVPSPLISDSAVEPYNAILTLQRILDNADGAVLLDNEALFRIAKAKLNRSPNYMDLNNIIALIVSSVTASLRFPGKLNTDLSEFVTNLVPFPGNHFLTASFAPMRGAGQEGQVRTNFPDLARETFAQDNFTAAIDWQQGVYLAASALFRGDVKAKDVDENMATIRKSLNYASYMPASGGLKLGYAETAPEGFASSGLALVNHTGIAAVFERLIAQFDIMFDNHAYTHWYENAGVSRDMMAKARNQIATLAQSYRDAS

How the values were obtained:
[1] = target: T1, BtubA/B heterodimer (bacterial tubulin) from Prosthecobacter dejongeii (Prosthecobacter dejongeii) (UniProt Q8GCC5+Q8GCC1); assay: sedimentation of polymers; BtubA/B 10 μM in polymerization buffer with 2 mM GTP, 10 min 25 °C, 100.000 x g 30 min; heterodimers to filaments; both purified
[2] = target: T1, BtubA/B heterodimer (bacterial tubulin) from Prosthecobacter dejongeii (Prosthecobacter dejongeii); assay: cryo-electron tomography; Btub filaments after 2 cycles of polymerization; heterodimers to filaments and bundles of protofilaments; both purified
[3] = target: BtubB from Prosthecobacter dejongeii (Prosthecobacter dejongeii) (UniProt Q8GCC1); assay: co-sedimentation + SEC; BtubA and BtubB co-expressed untagged in E. coli, purified together by a cycle of polymerization/depolymerization from the cleared lysate, then Superdex 200 in 20 mM Tris-HCl, 1 mM EDTA pH 7.5, 4 °C

binding [1]: binds | binding [2]: binds
Molecule: BtubA/B heterodimer (bacterial tubulin) from Prosthecobacter dejongeii (from UniProt Q8GCC5 1-473; Q8GCC1 1-426) (complex)

binding [3]: binds
B1: BtubA from Prosthecobacter dejongeii (protein, UniProt Q8GCC5 1-473)
chain: MKVNNTIVVSIGQAGNQIAASFWKTVCLEHGIDPLTGQTAPGVAPRGNWSSFFSKLGESSSGSYVPRAIMVDLEPSVIDNVKATSGSLFNPANLISRTEGAGGNFAVGYLGAGREVLPEVMSRLDYEIDKCDNVGGIIVLHAIGGGTGSGFGALLIESLKEKYGEIPVLSCAVLPSPQVSSVVTEPYNTVFALNTLRRSADACLIFDNEALFDLAHRKWNIESPTVDDLNLLITEALAGITASMRFSGFLTVEITLRELLTNLVPQPSLHFLMCAFAPLTPPDRSKFEELGIEEMIKSLFDNGSVFAACSPMEGRFLSTAVLYRGIMEDKPLADAALAAMREKLPLTYWIPTAFKIGYVEQPGISHRKSMVLLANNTEIARVLDRICHNFDKLWQRKAFANWYLNEGMSEEQINVLRASAQELVQSYQVAEESGAKAKVQDSAGDTGMRAAAAGVSDDARGSMSLRDLVDRRR
